Data as given in publication PMC7954848.
No constants are given. Whether binding was seen depends on the method and setting. Binding seen in cells or lysates may run through a third protein. Some results given as binding are weak or reduced against the parent protein; the word gives no strength.

Amino acid sequences for entries named in this document (tags omitted).
UniProt Q9UBF6: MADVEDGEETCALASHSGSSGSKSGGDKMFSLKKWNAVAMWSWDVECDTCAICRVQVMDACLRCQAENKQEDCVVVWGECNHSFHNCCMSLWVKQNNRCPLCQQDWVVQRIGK
UniProt Q93034: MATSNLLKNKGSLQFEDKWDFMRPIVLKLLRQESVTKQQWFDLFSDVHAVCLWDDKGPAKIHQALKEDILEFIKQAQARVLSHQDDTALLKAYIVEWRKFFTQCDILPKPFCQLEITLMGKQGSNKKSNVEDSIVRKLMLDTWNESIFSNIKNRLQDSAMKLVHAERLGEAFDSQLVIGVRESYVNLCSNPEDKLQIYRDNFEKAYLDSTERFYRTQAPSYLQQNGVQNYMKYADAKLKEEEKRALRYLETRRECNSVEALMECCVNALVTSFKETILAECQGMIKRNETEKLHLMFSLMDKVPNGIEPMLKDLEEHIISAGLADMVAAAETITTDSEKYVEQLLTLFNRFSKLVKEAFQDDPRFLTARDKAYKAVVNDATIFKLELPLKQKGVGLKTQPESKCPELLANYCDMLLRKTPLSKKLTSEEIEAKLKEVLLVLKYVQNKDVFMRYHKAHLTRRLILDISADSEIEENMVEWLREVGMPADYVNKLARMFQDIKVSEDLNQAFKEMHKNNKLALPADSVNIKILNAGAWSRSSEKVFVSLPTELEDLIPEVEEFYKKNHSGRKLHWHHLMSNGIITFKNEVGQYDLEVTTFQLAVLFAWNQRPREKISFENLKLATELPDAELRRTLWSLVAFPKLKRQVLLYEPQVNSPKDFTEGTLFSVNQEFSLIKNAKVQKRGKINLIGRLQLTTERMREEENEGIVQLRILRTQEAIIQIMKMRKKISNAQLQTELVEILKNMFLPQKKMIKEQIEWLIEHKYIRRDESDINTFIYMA

Assays:
[1] = biological target: T1, PRDX1 (human (endogenous in HCT116 and DLD1)) (UniProt Q06830); assay: co-IP; anti-PRDX1 immunoprecipitate of CRC cells (Figs. S7 and S8); cell line not given
T1 sequence: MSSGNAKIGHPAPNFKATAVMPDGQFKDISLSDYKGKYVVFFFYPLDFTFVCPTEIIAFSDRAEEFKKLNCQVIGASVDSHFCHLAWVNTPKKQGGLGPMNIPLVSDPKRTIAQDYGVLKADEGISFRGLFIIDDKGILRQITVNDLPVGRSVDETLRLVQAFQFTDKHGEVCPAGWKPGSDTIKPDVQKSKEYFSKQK

[2] = biological target: T2, Nedd8-conjugating enzyme UBE2F (human (endogenous in HCT116 and DLD1)) (UniProt Q969M7); assay: co-IP; lysates of HCT116 cells transfected with sh-PRDX1 or control, precipitated with anti-UBE2F or anti-CUL5 antibody, then Protein A + G Agarose; Western blot
T2 sequence: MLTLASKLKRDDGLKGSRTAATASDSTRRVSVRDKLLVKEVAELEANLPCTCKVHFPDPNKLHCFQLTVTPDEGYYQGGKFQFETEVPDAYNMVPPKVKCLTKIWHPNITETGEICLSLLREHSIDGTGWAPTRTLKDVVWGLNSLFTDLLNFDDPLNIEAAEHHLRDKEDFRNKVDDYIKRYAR

[3] = biological target: T1, PRDX1 (human (endogenous in HCT116 and DLD1)); assay: co-IP; HCT116 and DLD1 lysates (mild RIPA lysis buffer) precipitated with anti-PRDX1 or IgG control antibody overnight, then Protein A + G Agarose at 4 °C for 4 h; endogenous proteins detected by Western blot

| Substance | binding [1] | binding [2] | binding [3] |
| --- | --- | --- | --- |
| SAG (RNF7) (from UniProt Q9UBF6 1-113) | binds |  |  |
| cullin-5 (from UniProt Q93034 1-780) |  | binds | binds |
